Data taken from patent US20230250160A1 (HOBER BIOTECH, published 2023).
Results are given in words; binding and its absence hold for the method and conditions named. Some results given as binding are weak or reduced against the parent protein; the word gives no strength.

Chains of the proteins cited; added tags and fusions are not shown. Residues count along the entry.
UniProt P02768, residues 25-609: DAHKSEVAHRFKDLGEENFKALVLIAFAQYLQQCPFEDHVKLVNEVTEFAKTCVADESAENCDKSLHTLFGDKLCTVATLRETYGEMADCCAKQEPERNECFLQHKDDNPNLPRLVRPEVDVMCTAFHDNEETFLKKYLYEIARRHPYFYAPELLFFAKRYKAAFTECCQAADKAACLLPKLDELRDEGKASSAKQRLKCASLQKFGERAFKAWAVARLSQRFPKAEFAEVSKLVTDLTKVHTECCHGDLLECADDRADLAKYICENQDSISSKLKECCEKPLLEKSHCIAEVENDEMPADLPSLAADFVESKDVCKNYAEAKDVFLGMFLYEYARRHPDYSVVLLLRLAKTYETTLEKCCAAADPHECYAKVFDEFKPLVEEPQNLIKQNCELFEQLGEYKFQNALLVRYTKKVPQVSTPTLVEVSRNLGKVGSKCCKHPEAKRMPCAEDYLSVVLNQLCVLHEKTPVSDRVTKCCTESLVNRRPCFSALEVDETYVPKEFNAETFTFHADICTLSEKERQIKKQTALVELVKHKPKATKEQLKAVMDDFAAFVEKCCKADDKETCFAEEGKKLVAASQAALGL
UniProt P01375, residues 77-233: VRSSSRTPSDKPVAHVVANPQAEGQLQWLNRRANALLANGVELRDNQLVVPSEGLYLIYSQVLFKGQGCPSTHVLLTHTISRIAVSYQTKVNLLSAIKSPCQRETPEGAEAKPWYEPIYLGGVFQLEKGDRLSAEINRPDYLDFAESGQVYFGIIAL
UniProt P03950, residues 25-147: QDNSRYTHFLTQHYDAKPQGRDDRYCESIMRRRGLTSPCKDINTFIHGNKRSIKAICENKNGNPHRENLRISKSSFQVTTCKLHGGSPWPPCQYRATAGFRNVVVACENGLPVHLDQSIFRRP

T1: C-reactive protein (human (produced in the Human Secretome Project)) (UniProt P02741)
T1 sequence (looked up): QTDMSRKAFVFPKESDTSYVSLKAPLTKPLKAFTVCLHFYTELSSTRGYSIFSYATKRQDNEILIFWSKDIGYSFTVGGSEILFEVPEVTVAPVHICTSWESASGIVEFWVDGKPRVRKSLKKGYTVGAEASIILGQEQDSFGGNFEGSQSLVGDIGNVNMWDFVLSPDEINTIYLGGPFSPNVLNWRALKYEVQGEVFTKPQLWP

T2: renin (human (produced in the Human Secretome Project)) (UniProt P00797)
T2 sequence (looked up): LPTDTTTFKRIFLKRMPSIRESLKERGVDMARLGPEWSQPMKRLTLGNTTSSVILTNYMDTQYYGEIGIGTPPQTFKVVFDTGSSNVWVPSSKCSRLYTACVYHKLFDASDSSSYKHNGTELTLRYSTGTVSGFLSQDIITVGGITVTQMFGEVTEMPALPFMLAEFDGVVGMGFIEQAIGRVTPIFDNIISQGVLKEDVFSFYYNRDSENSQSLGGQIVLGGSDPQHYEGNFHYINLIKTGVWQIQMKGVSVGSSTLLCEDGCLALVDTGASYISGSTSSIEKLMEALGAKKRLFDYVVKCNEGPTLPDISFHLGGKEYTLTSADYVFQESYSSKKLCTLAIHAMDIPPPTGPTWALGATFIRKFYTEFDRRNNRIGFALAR

T3: myeloid-derived growth factor (human (produced in the Human Secretome Project)) (UniProt Q969H8)
T3 sequence (looked up): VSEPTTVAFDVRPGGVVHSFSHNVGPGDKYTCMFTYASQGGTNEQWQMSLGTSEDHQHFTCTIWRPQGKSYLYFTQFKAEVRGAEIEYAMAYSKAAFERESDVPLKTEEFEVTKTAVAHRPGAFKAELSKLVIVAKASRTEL


Legend:
[1] = biological target: T1, C-reactive protein (human (produced in the Human Secretome Project)); assay: SPR multi-cycle analysis
Human Serum Albumin [2] = biological target: T4, Human Serum Albumin (human, UniProt P02768 25-609); assay: SPR, compared with the reported affinity of ABD035
T4 construct: also called HSA

[3] = biological target: T2, renin (human (produced in the Human Secretome Project)); assay: SPR multi-cycle analysis
[4] = biological target: T3, myeloid-derived growth factor (human (produced in the Human Secretome Project)); assay: SPR multi-cycle analysis
[5] = biological target: T3, myeloid-derived growth factor (human (produced in the Human Secretome Project)); assay: SPR capture assay, ADAPT variant captured on immobilised HSA, then 500 nM MYDGF injected
[6] = biological target: T3, myeloid-derived growth factor (human (produced in the Human Secretome Project)); assay: SPR capture assay, ADAPT captured on HSA, target injected
Human Serum Albumin [7] = biological target: T4, Human Serum Albumin; assay: as above
Human Serum Albumin [8] = biological target: T4, Human Serum Albumin; assay: SPR capture assay, ADAPT variant injected over immobilised HSA
Human Serum Albumin [9] = biological target: T4, Human Serum Albumin; assay: SPR capture assay or HSA preincubation
[10] = biological target: tumor necrosis factor alpha (human (produced in the Human Secretome Project)) (UniProt P01375); assay: SPR multi-cycle analysis
[11] = biological target: tumor necrosis factor alpha (human (produced in the Human Secretome Project)) (UniProt P01375); assay: SPR capture assay, ADAPT captured on HSA, target injected
[12] = biological target: tumor necrosis factor alpha (human (produced in the Human Secretome Project)) (UniProt P01375); assay: SPR capture assay, ADAPT variant captured on immobilised HSA, then 200 nM TNFα injected
[13] = biological target: tumor necrosis factor alpha (human (produced in the Human Secretome Project)) (UniProt P01375); assay: SPR capture assay, ADAPT variant captured on immobilised HSA, then 500 nM TNFα injected
[14] = biological target: angiogenin (human (produced in the Human Secretome Project)) (UniProt P03950); assay: SPR multi-cycle analysis
[15] = biological target: angiogenin (human (produced in the Human Secretome Project)) (UniProt P03950); assay: SPR capture assay, ADAPT variant captured on immobilised HSA, then 500 nM angiogenin injected
[16] = biological target: angiogenin (human (produced in the Human Secretome Project)) (UniProt P03950); assay: SPR capture assay, ADAPT captured on HSA, target injected
Human Serum Albumin [17] = biological target: T4, Human Serum Albumin; assay: phage display selection after two panning rounds; simultaneous binding of Insulin and albumin
Human Serum Albumin [18] = biological target: T4, Human Serum Albumin; assay: size-exclusion chromatography of HSA, ADAPT and insulin mixed 1:1:1
Human Serum Albumin [19] = biological target: T4, Human Serum Albumin; assay: SPR (Biacore), ADAPT injected alone at 31.25-500 nM over immobilised HSA
Human Serum Albumin [20] = biological target: T4, Human Serum Albumin; assay: SPR sensorgrams, FIG. 2A
Human Serum Albumin [21] = biological target: T4, Human Serum Albumin; assay: analytical SEC (Superdex 75 5/150), samples mixed 1:1 or 1:1:1 and injected, overlaid with the single partners
Human Serum Albumin [22] = biological target: T4, Human Serum Albumin; assay: SPR
Human Serum Albumin [23] = biological target: T4, Human Serum Albumin; assay: SPR (Biacore), ADAPT preincubated with a molar excess of soluble HSA, injected at 31.25-500 nM over immobilised HSA (soluble HSA as competitor)

| binding (Human Serum Albumin [2]) | binding (Human Serum Albumin [7]) | binding (Human Serum Albumin [8]) | binding (Human Serum Albumin [9]) | Binder | also measured |
| --- | --- | --- | --- | --- | --- |
| binds |  |  |  | LYHAKWMASLELAKYGVSDFYWNLISKAKTVEGVEALKLHILAALP (designed binder) [ADAPT variant REN_01] | binding [3]: binds |
| binds | binds | binds | binds | LWWAKVWAVAELQKYGVSDFYFKLIDKAKTVEGVEALKLHILAALP (designed binder) [ADAPT variant MYDGF_07] | binding [4]: binds; binding [5]: binds; binding [6]: binds |
| binds | binds | binds | binds | LIWAKAEAVQELFMYGVSDFYYDLIIKAKTVEGVEALKLHILAALP (designed binder, Single domain of about 6 kDa, made in E. coli, purified on HSA resin) [ADAPT variant TNFα_05] | binding [10]: binds; binding [11]: binds; binding [12]: binds |
| binds | binds | binds | binds | LIWAKASAVRELHRYGVSDFYYELIVKAKTVEGVEALKLHILAALP (designed binder) [ADAPT variant TNFα_09] | binding [13]: binds; binding [10]: binds; binding [11]: binds |
| binds |  |  |  | LHYAKIMAFHELWQYGVSDFYLQLIDKAKTVEGVEALKLHILAALP (designed binder) [ADAPT variant CRP_48] | binding [1]: binds |
| binds | binds | binds |  | LAIAKAYAQYELSFYGVSDFYRELIVKAKTVEGVEALKLHILAALP (designed binder, also called INS_02) [ADAPT variant Insulin_02] | binding (Human Serum Albumin [17]): binds; binding (Human Serum Albumin [18]): binds; binding (Human Serum Albumin [19]): binds; binding (Human Serum Albumin [20]): binds; binding (Human Serum Albumin [21]): binds; binding (Human Serum Albumin [22]): binds; binding (Human Serum Albumin [23]): binds |
| binds | binds | binds | binds | LVIAKAYAQYELAFYGVSDFYSDLIKKAKTVEGVEALKLHILAALP (designed binder, also called INS_01) [ADAPT variant Insulin_01] | binding (Human Serum Albumin [17]): binds |
| binds | binds | binds | binds | LAVAKAYAKYELAFYGVSDFYNELILKAKTVEGVEALKLHILAALP (designed binder, also called INS_03) [ADAPT variant Insulin_03] | binding (Human Serum Albumin [17]): binds |
| binds | binds | binds | binds | LWWAKVSAIKELQAYGVSDFYYMLITKAKTVEGVEALKLHILAALP (designed binder) [ADAPT variant MYDGF_08] | binding [4]: binds; binding [5]: binds; binding [6]: binds |
| binds |  |  |  | LMWAKAEAAIELVDYGVSDFYQYLISKAKTVEGVEALKLHILAALP (designed binder) [ADAPT variant REN_40] | binding [3]: binds |

More lines, now with the values behind:

| Binder | binding (Human Serum Albumin [2]) | binding (Human Serum Albumin [7]) | binding (Human Serum Albumin [8]) | binding (Human Serum Albumin [9]) | also measured |
| --- | --- | --- | --- | --- | --- |
| LSKAKAQAWHELYYYGVSDFYLSLIDKAKTVEGVEALKLHILAALP (designed binder) [ADAPT variant CRP_23] | binds |  |  |  | binding [1]: binds |
| LRVAKSMAWHELWSYGVSDFYLRLIDKAKTVEGVEALKLHILAALP (designed binder) [ADAPT variant CRP_09] | binds |  |  |  | binding [1]: binds |
| LKVAKIIAFHELWEYGVSDFYLSLIDKAKTVEGVEALKLHILAALP (designed binder) [ADAPT variant CRP_38] | binds |  |  |  | binding [1]: binds |
| LYVAKDNADWELWQYGVSDFYRSLIWKAKTVEGVEALKLHILAALP (designed binder) [ADAPT variant ANG_16] | binds | binds | binds | binds | binding [14]: binds; binding [15]: binds; binding [16]: binds |
| LWAAKDDADWELWQYGVSDFYRALIWKAKTVEGVEALKLHILAALP (designed binder, also called ANG_6) [ADAPT variant ANG_06] | binds | binds | binds | binds | binding [14]: binds; binding [15]: binds; binding [16]: binds |
| LYWAKDYADYELWQYGVSDFYRSLIWKAKTVEGVEALKLHILAALP (designed binder, also called ANG_2) [ADAPT variant ANG_02] | binds | binds | binds | binds | binding [14]: binds; binding [15]: binds; binding [16]: binds |
| LHEAKDWADYELWSYGVSDFYRALIWKAKTVEGVEALKLHILAALP (designed binder) [ADAPT variant ANG_13] | binds | binds | binds | binds | binding [14]: binds; binding [15]: binds; binding [16]: binds |
